Data as given in patent US20100285016A1 (Genentech, published 2010).
Results are given in words; binding and its absence hold for the method and conditions named. In cells and extracts the contact can be indirect. Some entries that bind do so weakly or less than the wild type. Where a sequence is shown, tags or fusion partners need not be part of it.

Target: T1, C-terminally FLAG-tagged GDNF (UniProt P39905)
T1 sequence (looked up): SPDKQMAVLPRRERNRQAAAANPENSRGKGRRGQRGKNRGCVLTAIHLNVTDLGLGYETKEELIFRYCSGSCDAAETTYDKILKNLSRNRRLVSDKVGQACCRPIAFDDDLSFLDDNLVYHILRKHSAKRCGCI
Experiment: co-immunoprecipitation with protein-A beads from mixed conditioned media, anti-FLAG western blot

B1: PRO34128-Fc fusion protein (Fc fusion, not shown: a dimerising Fc or GST)
chain: SQTNNCTYLREQCLRDANGCKHAWRVMEDACNDSDPGDPCKMRNSSYCNLSIQYLVESNFQFKECLCTDDFYCTVNKLLGKKCINKSDNVKEDKFKWNLTTRSHHGFKGMWSCLEVAEACVGDVVCNAQLASYLKACSANGNPCDLKQCQAAIRFFYQNIPFNIAQMLAFCDCAQSDIPCQQSKEALHSKTCAVNMVPPPTCLSVIRSCQNDELCRRHYRTFQSKCWQRVTRKCHEDENCISTLSKQDLTCSGSDDCKAAYIDILGTVLQVQCTCRTITQSEESLCKIFQHMLHRKSCFNYPTLSNVKGMALYTRKHANKITLTGFHSPFNGE
B1 was tested, and the binding was “binds”.
